Construct, isoform or probe ends are uncertain for at least one entry. Weaker means in comparison with the reference protein, sequence or condition of that experiment.
Tested on: CX3 (RAD51C-XRCC3) (Homo sapiens)
Test: EMSA
Details: 1 mM ATP, 58 nM DNA, 37 °C, 10 min, paralogs: 50 mM KCl, 0.8% agarose gel, RAD51: 100 mM KCl, 2 mM ATP, 6% TBE-PAGE, recombinant protein, protein details: N-terminal His6-Flag on RAD51C, label: 5' Cy3 on oligo 13

Chains of the proteins cited; added tags and fusions are not shown. Chains listed by the source or under a name are the forms on record and can include a tag or linker.
CX3 (RAD51C-XRCC3) (Homo sapiens), one chain, as listed by the source, chain 2 of 2: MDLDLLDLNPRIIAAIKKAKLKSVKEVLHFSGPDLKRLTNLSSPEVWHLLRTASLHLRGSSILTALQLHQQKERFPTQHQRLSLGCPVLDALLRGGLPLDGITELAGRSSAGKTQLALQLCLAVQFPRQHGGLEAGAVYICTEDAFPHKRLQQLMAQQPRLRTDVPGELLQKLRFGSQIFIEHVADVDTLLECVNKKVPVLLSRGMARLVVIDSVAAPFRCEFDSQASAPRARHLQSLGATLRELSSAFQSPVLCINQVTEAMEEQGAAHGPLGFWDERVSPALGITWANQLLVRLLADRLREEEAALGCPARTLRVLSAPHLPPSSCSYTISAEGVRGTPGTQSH
CX3 (RAD51C-XRCC3) (Homo sapiens), one chain, as listed by the source, chain 1 of 2: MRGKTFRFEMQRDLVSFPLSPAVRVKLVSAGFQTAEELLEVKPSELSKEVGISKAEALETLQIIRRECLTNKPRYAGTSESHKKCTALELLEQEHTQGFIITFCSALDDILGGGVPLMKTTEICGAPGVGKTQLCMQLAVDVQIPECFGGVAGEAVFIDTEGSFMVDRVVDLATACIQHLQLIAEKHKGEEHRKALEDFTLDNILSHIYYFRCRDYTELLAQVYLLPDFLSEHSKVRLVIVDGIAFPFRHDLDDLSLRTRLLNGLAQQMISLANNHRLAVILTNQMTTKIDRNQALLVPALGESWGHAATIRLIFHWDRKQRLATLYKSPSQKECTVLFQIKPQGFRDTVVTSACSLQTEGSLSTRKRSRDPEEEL

“TTAGAGCTTAATTGCTGAATCTGGTGCTGTGGGTGAACCTGCAGGTGGGCAAAGA (double strand) [dsDNA 55 bp (oligo 13 + oligo 14)]”: binds more weakly.

— PMC10681713
